Measured values reported in US9422340B2, “Macrocyclic compounds useful as inhibitors of histone deacetylases” (The Regents of the University of Colorado, A Body Corporate, priority 2010, dated 2016).
At least one structure is not confirmed: it was looked up by name or label, or the drawing left a doubt.

Assays:
[1] = test system: HCT116 cells; conditions: Ying et al. 2008b, read-out: GI50, antigrowth activity; cited from earlier work
[2] = test system: acetylated histone H3 in HCT116 cells; assay: Western blot of histone H3 hyperacetylation; type: cell-based, human
[3] = test system: HCT 116 cells; conditions: Zeng et al. 2010; cited from earlier work
[4] = test system: HT29 colon cells; conditions: Taori et al. 2008; cited from earlier work
[5] = test system: HDAC; conditions: read-out: IC50, HDAC inhibition in treated cells; cells treated with compound; Ying et al. 2008a; cited from earlier work
[6] = test system: U2OS fibroblastic osteosarcoma cells; conditions: Taori et al. 2008; cited from earlier work
[7] = test system: purified full length HDAC proteins from class I and class II; conditions: Bowers et al. 2008, cited from earlier work
[8] = test system: HLF; conditions: HLF normal cell line; Zeng et al. 2010; cited from earlier work
[9] = test system: IMR-32 neuroblastoma cells; conditions: Taori et al. 2008; cited from earlier work
[10] = test system: MDA-MB-231 mammary carcinoma cells; conditions: Taori et al. 2008; cited from earlier work
[11] = test system: melanoma cell lines; conditions: series of melanoma cell lines; Bowers et al. 2008; cited from earlier work

CCCCCCCC(=O)SCC/C=C/[C@@H]1CC(=O)NCc2nc(cs2)C2=N[C@@](C)(CS2)C(=O)N[C@@H](C(C)C)C(=O)O1 [Largazole]
GI50 [1]: 44 nM
Inhibition of H3 deacetylation over time (FIG. 8A) ([2]; 10 nM largazole or 200 nM SAHA, anti-acetyl-H3 immunoblot): inhibit H3 deacetylation in a time-dependent manner
Deacetylase inhibition, dose response of H3 acetylation (FIG. 8B) ([2]; 8 hours, concentrations ranging from 1/μM to 100 nM): dose-dependent fashion
GI50 [3]: 80 nM
GI50 [4]: 12 nM
IC50 [5]: 51 nM
GI50 [6]: 55 nM
Preference among HDAC isoforms ([7]; HDACs 1, 2, 3 versus HDAC6): pronounced preference of largazole for HDACs 1, 2, and 3 over HDAC6
In vitro HDAC inhibition compared to largazole thiol ([7]; purified HDAC proteins): much weaker HDAC inhibitor
GI50 [8]: 980 nM
GI50 [9]: 16 nM
GI50 [10]: 7.7 nM
IC50 [11]: 45 to 315 nM
